# Results from one PubChem assay

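Uptake of anthrax lethal toxin into cultured cells, read by FRET (460/530 nm ratio) and reported from the 460 nm channel; the cell line is not named here.
Each compound was tested as a concentration series from about 0.0005 to 40 µM.
The number is the fitted AC50 of the 460 nm signal alone; lower values mean a more potent effect. A falling signal goes with compounds filed as inhibitors or cytotoxic, a rising one with activators or fluorescent compounds (inferred from the filed classes).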

Values are in nM.
Common to all entries: measured here: 460 nm channel.
This is a side read-out of the assay, for part of the compounds, not drawn at random.
A potency from a partial, single-point or poor curve is only a rough figure.
The first word of each remark tells which way the curve ran; it can be opposite to the aim of the assay.

SMILES,AC50 (nM),remark
CN(C)c1ccc(NC(=O)Cn2cc3c(n2)CCCC3)cc1,794.3,"falling, partial curve"
O=C(c1ccco1)N1CCN(S(=O)(=O)c2ccc(S(=O)(=O)NC3CCCCC3)cc2)CC1,31622,"rising, single point"
c1ccc(-c2onc3cc4c(cc23)OCCO4)cc1,31622,"falling, single point"
CCC(=O)N1CCN(C(C)=O)C1c1ccccc1 (stereo not given),5012,"rising, single point"
N#CC1=C(N)NC(SCc2ccccc2)=C(C#N)C12CCCCC2,12589,"falling, partial curve"
O=C(CC1N=C2c3ccccc3N=C(SCc3ccccc3Cl)N2C1=O)NCc1ccco1 (stereo not given),2512,"rising, full curve"
COc1ccc(C(=O)Nc2oc(-c3ccccc3)c(-c3ccccc3)c2C#N)cc1OC,10000,"falling, partial curve"
Clc1ccc(C(c2ccc(Cl)cc2)n2cc[n+](C[C@@H](OCc3ccc(Cl)cc3Cl)c3ccc(Cl)cc3Cl)c2)cc1,31622,"falling, single point"
COc1ccc2c(CC(=O)OCC(=O)c3ccc(F)cc3)coc2c1,12589,"rising, single point"
CCc1ccc(C2C(C(C)=O)=C(C(=O)OC)Nc3nnnn32)cc1 (stereo not given),10000,"rising, single point"
O=C(Cn1c(=O)n(Cc2ccco2)c(=O)c2ccccc21)Nc1cccc(Cl)c1,2512,"falling, full curve"
CCn1cc(C(=O)NCC2CCCO2)c(=O)c2cc(S(=O)(=O)N3CCCCCC3)ccc21 (stereo not given),19952,"rising, single point"
O=C(Nc1ccccc1O)c1ccccc1O,31622,"falling, single point"
CCCCn1c(NC(C)=O)c(C#N)c2nc3ccccc3nc21,10000,"rising, partial curve"
COC(=O)c1cccc2c1-c1ccccc1/C2=N/O,7943,"falling, partial curve, poor fit"
COc1ccc(NC(=O)N2CC[C@@]3(CCCN(C(=O)c4ccc(OC)cc4)C3)C2)cc1,19952,"rising, single point"
CCOC(=O)Cn1c(-c2nonc2NC(=O)c2ccccc2F)nc2ccccc21,31622,"falling, single point"
O=C1NC2NC(=O)N(C(Cc3ccccc3)C(=O)O)C2N1 (stereo not given),25.12,"falling, partial curve, poor fit"
Cc1cnc(NC(=O)CSc2nnc(CNc3ccc(F)cc3)n2CC2CCCO2)s1 (stereo not given),15848,"rising, single point"
CCCCCC[C@H]1C(=O)O[C@@H](C)[C@H](NC(=O)c2cccc(NC=O)c2O)C(=O)O[C@@H](C)[C@@H]1OC(=O)CC(C)C,12589,"falling, single point"
COc1cccc(-c2cc(=O)c3cc(O)ccc3o2)c1,12589,"falling, single point"
O=C(Nc1ccc2nsnc2c1)c1cccs1,19952,"rising, single point"
Clc1ccc(SCCCCn2ccnc2)cc1,12589,"falling, single point"
Nc1nc(SCc2ccccc2[N+](=O)[O-])c2[nH]cnc2n1,631,"falling, single point"
CCC(OC(=O)c1cc2sccc2n1C)C(=O)NCC1CCCO1 (stereo not given),12589,"rising, single point"
COC(=O)c1ccccc1NC(=O)CN1CCC(C(=O)c2ccc3c(c2)OCCO3)CC1,10000,"falling, partial curve"
Oc1ccc(-c2csc(NCc3ccco3)n2)cc1,12589,"falling, single point"
COc1ccc(CCNC(=O)c2nc3ncccn3n2)cc1OC,5012,"rising, single point"
CC(=O)NC(Cc1c[nH]c2ccccc12)C(=O)NCc1ccc2c(c1)OCO2 (stereo not given),5012,"rising, partial curve"
COc1ccc(-c2nc3cnc(N4CCOCC4)nc3n(C[C@H]3CCCO3)c2=O)cc1,12589,"rising, partial curve"
OC(COc1ccc2c(c1)CCC2)CN1CCN(c2ccccc2F)CC1 (stereo not given),10000,"falling, partial curve"
O=C(CCN1C(=O)COc2ccccc21)NCc1ccco1,25.12,"falling, full curve, poor fit"
COc1ccc(S(=O)(=O)N2CCN(Cc3cccc(Cl)c3)CC2)cc1,31622,"falling, single point"
COc1cccc2sc(N3CCN(c4nc5ccccc5s4)CC3)nc12,19.95,"falling, full curve"
C1=CC2c3ccccc3NC(c3ccncc3)C2C1 (stereo not given),7943,"falling, partial curve"
CC1Cc2ccccc2N1C(=O)CSc1nnc2sc3ccccc3n12 (stereo not given),3162,"rising, full curve, poor fit"
CCN(Cc1ccccc1)c1ccccc1,31622,"falling, partial curve, poor fit"
COc1ccc(C2C(=O)N(CCc3ccccc3)CC(=O)N2C2CCCC2)cc1 (stereo not given),3162,"rising, full curve, poor fit"
O=c1c(-c2ccc(Cl)cc2)nc2cnc(N3CCNCC3)nc2n1Cc1ccc(F)cc1,794.3,"rising, full curve"
COc1ccc(S(=O)(=O)NCCC(=O)NC(C)c2ccccc2)cc1 (stereo not given),7943,"rising, partial curve, poor fit"
CCC#N,31622,"falling, single point"
CCn1c(C(=O)N2CCC(C(=O)NCCCSC3CCCCC3)CC2)cc2sccc21,6310,"falling, partial curve"
Cc1ccc(NS(=O)(=O)c2ccc(NC(=O)C3CCCO3)cc2)cc1 (stereo not given),3.981,"falling, full curve, poor fit"
CN(C)c1ccnc2sc3c(=O)n(Cc4ccccc4)cnc3c12,199.5,"rising, full curve"

Some entries from above, unchanged:

SMILES,AC50 (nM),remark
COc1ccc(-c2nc3cnc(N4CCOCC4)nc3n(C[C@H]3CCCO3)c2=O)cc1,12589,"rising, partial curve"
OC(COc1ccc2c(c1)CCC2)CN1CCN(c2ccccc2F)CC1 (stereo not given),10000,"falling, partial curve"
Clc1ccc(C(c2ccc(Cl)cc2)n2cc[n+](C[C@@H](OCc3ccc(Cl)cc3Cl)c3ccc(Cl)cc3Cl)c2)cc1,31622,"falling, single point"
Nc1nc(SCc2ccccc2[N+](=O)[O-])c2[nH]cnc2n1,631,"falling, single point"
CCOC(=O)Cn1c(-c2nonc2NC(=O)c2ccccc2F)nc2ccccc21,31622,"falling, single point"

The results are deposited in PubChem (AID912; NCATS, 2007).